Results taken from the supplement of paper PMC10849652.
The other results are listed elsewhere or left out.

Chains of the proteins cited; added tags and fusions are not shown. Lines headed by an entry give the natural chain unless they say otherwise; changes in a name come on top.
UniProt Q0ZGT2: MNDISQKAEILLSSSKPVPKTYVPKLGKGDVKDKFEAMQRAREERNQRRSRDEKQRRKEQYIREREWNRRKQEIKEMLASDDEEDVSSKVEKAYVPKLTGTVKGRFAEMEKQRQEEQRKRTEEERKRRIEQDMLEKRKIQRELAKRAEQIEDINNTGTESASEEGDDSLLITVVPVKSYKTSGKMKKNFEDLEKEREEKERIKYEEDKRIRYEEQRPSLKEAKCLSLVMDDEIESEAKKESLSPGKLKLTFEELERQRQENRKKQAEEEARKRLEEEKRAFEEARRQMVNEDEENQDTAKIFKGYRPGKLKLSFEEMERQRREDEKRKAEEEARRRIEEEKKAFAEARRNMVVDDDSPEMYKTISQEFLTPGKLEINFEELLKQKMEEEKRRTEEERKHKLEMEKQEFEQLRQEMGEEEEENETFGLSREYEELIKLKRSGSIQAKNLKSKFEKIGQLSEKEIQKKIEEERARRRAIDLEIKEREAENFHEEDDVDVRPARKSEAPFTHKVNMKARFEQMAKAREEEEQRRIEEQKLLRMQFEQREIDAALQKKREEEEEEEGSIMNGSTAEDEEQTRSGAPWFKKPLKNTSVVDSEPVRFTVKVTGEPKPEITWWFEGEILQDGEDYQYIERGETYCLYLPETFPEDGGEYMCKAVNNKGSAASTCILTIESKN
UniProt P30414: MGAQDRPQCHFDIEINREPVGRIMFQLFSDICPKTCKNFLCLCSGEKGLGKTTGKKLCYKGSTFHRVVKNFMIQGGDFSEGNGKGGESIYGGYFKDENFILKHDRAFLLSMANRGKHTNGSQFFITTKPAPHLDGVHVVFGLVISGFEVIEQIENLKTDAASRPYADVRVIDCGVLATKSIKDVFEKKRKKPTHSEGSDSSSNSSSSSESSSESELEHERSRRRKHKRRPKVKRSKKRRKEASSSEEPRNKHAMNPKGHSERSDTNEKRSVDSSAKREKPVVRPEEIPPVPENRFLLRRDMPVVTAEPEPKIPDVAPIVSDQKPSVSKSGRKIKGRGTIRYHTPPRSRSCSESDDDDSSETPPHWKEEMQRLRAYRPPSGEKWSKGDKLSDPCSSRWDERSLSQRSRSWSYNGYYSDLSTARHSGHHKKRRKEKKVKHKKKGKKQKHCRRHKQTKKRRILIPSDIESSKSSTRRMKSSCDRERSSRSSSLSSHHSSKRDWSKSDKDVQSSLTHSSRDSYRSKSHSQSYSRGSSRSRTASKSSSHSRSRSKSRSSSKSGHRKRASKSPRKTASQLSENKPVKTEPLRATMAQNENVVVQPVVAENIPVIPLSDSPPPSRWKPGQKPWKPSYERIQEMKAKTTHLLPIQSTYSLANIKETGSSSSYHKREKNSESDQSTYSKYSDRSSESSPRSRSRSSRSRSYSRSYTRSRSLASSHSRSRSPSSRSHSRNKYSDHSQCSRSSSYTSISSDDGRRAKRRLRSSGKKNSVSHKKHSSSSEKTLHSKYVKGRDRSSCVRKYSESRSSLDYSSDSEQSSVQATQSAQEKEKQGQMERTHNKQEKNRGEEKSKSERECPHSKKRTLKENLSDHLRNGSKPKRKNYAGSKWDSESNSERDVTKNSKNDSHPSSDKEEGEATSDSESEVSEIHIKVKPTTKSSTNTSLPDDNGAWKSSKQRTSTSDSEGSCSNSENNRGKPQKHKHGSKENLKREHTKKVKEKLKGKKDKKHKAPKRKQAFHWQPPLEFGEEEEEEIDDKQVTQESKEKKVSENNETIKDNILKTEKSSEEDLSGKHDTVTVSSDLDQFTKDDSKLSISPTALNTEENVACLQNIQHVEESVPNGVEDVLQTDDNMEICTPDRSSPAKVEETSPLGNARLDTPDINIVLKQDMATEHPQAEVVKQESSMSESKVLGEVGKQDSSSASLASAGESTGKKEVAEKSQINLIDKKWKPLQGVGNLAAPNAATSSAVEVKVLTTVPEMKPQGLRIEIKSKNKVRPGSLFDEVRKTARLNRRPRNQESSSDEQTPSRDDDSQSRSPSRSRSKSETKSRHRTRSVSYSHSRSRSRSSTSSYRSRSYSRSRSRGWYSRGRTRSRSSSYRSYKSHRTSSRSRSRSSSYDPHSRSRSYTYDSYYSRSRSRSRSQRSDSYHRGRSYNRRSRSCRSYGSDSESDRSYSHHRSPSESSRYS
UniProt Q13952: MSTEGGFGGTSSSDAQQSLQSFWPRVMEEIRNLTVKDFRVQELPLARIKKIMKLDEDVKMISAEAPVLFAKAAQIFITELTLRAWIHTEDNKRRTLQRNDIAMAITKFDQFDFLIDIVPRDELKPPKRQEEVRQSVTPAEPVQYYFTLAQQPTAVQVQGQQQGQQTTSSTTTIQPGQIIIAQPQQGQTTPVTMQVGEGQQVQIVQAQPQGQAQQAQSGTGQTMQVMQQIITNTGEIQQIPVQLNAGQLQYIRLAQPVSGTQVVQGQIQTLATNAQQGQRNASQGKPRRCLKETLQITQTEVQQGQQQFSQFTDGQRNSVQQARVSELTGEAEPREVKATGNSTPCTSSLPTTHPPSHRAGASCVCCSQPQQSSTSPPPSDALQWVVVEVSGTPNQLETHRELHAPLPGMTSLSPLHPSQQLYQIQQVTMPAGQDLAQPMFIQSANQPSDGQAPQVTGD
UniProt Q9C000: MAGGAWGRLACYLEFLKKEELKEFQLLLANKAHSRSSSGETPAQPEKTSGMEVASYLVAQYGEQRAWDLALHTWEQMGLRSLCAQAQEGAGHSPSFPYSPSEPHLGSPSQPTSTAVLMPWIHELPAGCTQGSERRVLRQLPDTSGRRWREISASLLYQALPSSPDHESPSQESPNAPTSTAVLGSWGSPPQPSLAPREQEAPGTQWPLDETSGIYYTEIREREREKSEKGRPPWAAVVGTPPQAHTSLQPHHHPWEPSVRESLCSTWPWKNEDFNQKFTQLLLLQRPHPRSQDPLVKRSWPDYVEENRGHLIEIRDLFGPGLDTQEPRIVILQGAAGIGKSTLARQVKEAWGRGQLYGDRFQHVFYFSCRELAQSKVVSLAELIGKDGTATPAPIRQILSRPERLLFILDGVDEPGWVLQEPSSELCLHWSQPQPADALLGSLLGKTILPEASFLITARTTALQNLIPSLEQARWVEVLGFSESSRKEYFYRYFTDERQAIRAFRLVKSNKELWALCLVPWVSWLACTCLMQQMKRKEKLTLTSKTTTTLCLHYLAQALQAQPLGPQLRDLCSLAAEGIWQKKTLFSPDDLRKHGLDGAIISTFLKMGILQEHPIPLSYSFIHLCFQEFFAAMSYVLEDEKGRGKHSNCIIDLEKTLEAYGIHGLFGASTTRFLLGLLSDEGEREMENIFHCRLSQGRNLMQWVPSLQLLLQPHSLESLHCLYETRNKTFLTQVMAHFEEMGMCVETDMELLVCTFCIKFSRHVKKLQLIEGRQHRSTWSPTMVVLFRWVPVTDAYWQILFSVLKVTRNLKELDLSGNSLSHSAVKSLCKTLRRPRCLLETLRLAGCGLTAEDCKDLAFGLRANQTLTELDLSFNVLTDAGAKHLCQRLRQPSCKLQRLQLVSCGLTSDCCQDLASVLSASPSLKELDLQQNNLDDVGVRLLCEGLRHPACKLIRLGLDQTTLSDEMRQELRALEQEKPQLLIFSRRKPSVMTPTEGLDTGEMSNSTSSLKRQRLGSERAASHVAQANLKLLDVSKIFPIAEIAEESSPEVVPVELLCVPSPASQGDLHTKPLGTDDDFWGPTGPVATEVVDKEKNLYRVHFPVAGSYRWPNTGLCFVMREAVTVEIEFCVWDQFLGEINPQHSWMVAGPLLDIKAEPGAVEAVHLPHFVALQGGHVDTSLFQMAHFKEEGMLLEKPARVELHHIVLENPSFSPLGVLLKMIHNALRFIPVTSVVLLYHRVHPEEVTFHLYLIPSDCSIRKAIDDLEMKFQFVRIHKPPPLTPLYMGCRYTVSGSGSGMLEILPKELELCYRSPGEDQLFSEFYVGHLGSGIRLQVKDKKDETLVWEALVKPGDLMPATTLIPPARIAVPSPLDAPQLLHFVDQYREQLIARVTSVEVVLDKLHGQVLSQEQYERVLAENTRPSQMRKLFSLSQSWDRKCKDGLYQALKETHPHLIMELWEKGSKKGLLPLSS
UniProt Q96JN8: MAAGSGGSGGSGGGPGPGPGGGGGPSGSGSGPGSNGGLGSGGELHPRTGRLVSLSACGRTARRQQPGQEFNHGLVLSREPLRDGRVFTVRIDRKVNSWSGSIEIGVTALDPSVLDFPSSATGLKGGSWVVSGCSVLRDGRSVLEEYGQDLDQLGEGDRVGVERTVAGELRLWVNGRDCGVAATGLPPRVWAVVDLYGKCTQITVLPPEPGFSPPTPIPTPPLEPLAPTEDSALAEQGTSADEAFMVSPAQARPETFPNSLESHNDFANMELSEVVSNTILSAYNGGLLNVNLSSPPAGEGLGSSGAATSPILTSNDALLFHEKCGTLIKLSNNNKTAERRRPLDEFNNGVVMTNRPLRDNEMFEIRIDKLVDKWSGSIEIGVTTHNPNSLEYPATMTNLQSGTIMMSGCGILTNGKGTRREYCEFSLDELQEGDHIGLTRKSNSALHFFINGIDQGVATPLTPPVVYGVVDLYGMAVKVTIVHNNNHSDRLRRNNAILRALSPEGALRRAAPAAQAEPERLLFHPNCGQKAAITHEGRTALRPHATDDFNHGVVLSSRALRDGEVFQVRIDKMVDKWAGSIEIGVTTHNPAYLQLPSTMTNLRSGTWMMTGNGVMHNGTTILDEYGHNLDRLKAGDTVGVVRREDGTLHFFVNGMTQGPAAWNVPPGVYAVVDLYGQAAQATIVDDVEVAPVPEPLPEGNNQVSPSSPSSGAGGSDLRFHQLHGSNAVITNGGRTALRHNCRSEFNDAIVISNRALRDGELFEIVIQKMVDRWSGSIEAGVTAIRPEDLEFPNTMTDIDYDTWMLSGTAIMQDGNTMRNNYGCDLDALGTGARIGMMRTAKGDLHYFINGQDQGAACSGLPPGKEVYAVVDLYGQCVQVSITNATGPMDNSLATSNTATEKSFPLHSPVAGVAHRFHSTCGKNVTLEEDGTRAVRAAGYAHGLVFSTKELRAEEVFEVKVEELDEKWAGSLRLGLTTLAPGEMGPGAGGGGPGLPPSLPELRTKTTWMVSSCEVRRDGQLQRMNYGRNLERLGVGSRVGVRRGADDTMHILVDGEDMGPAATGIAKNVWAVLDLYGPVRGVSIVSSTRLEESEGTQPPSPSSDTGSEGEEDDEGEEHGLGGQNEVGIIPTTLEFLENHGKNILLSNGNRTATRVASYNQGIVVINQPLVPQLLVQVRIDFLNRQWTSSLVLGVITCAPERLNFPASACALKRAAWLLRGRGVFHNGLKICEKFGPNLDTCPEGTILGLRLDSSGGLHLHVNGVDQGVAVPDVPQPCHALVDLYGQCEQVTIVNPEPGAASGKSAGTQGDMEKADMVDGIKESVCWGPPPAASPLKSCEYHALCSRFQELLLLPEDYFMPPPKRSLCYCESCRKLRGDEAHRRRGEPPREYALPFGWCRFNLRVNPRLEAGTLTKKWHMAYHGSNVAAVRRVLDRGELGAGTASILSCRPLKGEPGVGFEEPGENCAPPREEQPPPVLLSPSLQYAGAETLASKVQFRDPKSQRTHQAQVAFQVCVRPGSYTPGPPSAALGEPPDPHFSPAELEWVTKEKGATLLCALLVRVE
UniProt O43677, whole entry, looked up: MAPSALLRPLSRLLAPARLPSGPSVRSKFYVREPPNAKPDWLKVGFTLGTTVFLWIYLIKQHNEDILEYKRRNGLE
UniProt O15226: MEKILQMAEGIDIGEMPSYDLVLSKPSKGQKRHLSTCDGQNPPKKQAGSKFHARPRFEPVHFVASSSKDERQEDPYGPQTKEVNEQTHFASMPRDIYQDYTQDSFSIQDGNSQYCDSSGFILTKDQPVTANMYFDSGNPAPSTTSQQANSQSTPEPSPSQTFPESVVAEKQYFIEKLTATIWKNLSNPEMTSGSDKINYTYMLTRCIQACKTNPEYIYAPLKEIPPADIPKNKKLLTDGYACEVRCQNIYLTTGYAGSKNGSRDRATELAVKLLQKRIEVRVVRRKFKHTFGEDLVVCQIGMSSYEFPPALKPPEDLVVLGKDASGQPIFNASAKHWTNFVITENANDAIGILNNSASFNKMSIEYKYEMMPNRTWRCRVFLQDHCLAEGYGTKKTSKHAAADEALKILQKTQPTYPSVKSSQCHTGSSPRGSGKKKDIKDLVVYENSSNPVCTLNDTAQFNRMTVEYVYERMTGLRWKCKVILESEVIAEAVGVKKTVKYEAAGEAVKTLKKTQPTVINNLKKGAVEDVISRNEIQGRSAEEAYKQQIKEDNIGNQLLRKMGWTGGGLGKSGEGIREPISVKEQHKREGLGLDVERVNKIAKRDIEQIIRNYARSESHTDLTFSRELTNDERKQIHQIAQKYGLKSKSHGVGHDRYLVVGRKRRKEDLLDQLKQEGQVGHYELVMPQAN

Columns and labels:
Assay in all cases: log2 fold change, soluble protein after heating vs DMSO (PISA); higher = thermal stabilisation; K562 lysate, 10 uM; active = over 0.2 and 3.5 SD of the protein, either way, in both replicates (recomputed)
[1] = compound: C#Cc1cccc(Nc2ncnc3cc(OCCOC)c(OCCOC)cc23)c1 [erlotinib]
Outline: (§1)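 Quantification was by TMTpro 16plex LC-MS/MS with equalised channel sums, applied to the supernatant after 21,000xg for 90 min. Samples were crude K562 extract at 1 mg/mL protein in PBS pH 7.4 with 1 mM MgCl2, treated with 10 μM compound for 30 min, heated for 3 min across 48°C-58°C, pooled and brought to 0.5% NP-40 at 4°C. Values are log-two fold changes in thermal stability relative to solvent controls, from duplicates.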

[2] = compound: C/C(=N\NC(=O)C1=CC(=CC=C1)S(=O)(=O)N2CCOCC2)/C3=C(C=CC(=C3)Cl)O
Outline: as §1

[3] = compound: C1=CC(=CC=C1C2=NC3=C(N2)C=C(C=C3)C(=O)N)OC4=CC=C(C=C4)Cl
Outline: as §1

[4] = compound: C1=CC2=C(C=CC(=C2)/C=C\3/C(=O)NC(=NCC4=CC=CS4)S3)N=C1
Outline: as §1

[5] = compound: C1=CC2=NC=CN=C2C=C1/C=C/3\C(=O)NC(=O)S3
Outline: as §1

[6] = compound: C1=CC=C(C=C1)C2=NC(=C(N2)C3=CC=NC=C3)C4=CC(=C(C=C4)Cl)O
Outline: as §1

[7] = compound: C1=CC=C2C(=C1)C3=NNC4=CC=CC(=C43)C2=O
Outline: as §1

[8] = compound: C1COCCN1CCN2C3=CC=CC=C3N=C2NC(=O)C4=CC(=CC=C4)[N+](=O)[O-] [IRAK-1-4 Inhibitor I]
Outline: as §1

[9] = compound: C=CC(=O)N1CCC[C@@H](n2nc(-c3ccc(Oc4ccccc4)cc3)c3c(N)ncnc32)C1 [ibrutinib]
Outline: as §1

[10] = compound: CC(C)(C)Cn1c(N)nc2ccc(-c3[nH]c(C(C)(C)C)nc3-c3ccc(F)cc3)nc21 [ralimetinib]
Outline: as §1

[11] = compound: CC(C)(O)CC(=O)NCCn1ccc2ncnc(Nc3ccc(Oc4cccc(C(F)(F)F)c4)c(Cl)c3)c21
Outline: as §1

[12] = compound: CC(C)C1=C2N=C(C=C(N2N=C1)NCC3=CC=CC=C3)NCCCCCCN
Outline: as §1

[13] = compound: CC1=C(C(CC(=O)N1)C2=CC=C(C=C2)C(F)(F)F)C(=O)NC3=C(C=C4C(=C3)C=NN4)F
Outline: as §1

[14] = compound: CC1=C(C2=C(C=C1)C(=O)C3=CC=CC=C3N2CCCN)C
Outline: as §1

[15] = compound: CC1=C(C=C(C=C1)NC(=O)C2=CC(=CC=C2)C(C)(C)C#N)NC3=CC4=C(C=C3)N=CN(C4=O)C
Outline: as §1

[16] = compound: CC1=C(C=C(C=C1)NC(=O)C2=CC(=CC=C2)N(C)C)NC(=O)C3=CC=C(C=C3)O
Outline: as §1

[17] = compound: C1CCN(C1)C(=O)NC2=CC=CC(=C2)NC3=NC=C(C(=N3)NCCC4=CN=CN4)Br
Outline: as §1

[18] = compound: C1CN(CCC1(CC2=CC=C(C=C2)Cl)N)C3=NC=NC4=C3C=CN4
Outline: as §1

[19] = compound: CC(=O)c1cnc2ccc(-c3cc(Cl)c(O)c(Cl)c3)nc2c1N[C@H]1CC[C@H](CN(C)C)CC1
Outline: as §1

[20] = compound: CC1=CC=C(C=C1)SC2=C3C=C(SC3=CN=C2)C(=O)N
Outline: as §1

Measured: log2 fold change

NEU4 (UniProt C9JEA3)
inactive: [1] -0.021 | [2] -0.152 | [3] 0.121 | [4] -0.003 | [5] 0.034 | [6] -0.073 | [7] -0.014 | [8] -0.044 | [9] -0.063 | [10] -0.026 | [11] -0.135 | [12] -0.053 | [13] 0.018 | [14] -0.034 | [15] -0.051 | [16] 0.051

NFYA (UniProt P23511)
inactive: [1] -0.005 | [2] -0.055 | [3] 0.031 | [4] 0.016 | [5] -0.081 | [6] -0.016 | [7] -0.011 | [17] -0.025 | [18] -0.027 | [8] 0.007 | [9] 0.077 | [19] -0.046 | [10] -0.014 | [11] 0 | [12] 0.071 | [14] 0.027 | [15] 0.022 | [16] -0.131 | [20] -0.076

NEB isoform 3 (UniProt P20929)
inactive: [1] 0.146 | [2] 0.011 | [3] 0.143 | [4] -0.127 | [5] -0.054 | [6] -0.041 | [7] -0.22 | [8] 0.115 | [9] -0.05 | [19] -0.026 | [10] 0.022 | [11] -0.25 | [12] 0.024 | [13] -0.062 | [14] -0.026 | [15] 0.05 | [16] -0.026 | [20] 0.099

NEXN (UniProt Q0ZGT2)
inactive: [1] 0.091 | [2] -0.011 | [3] -0.019 | [4] -0.067 | [5] -0.154 | [6] -0.144 | [7] -0.049 | [17] -0.255 | [18] 0.28 | [8] -0.133 | [9] 0.173 | [19] -0.008 | [10] 0.257 | [11] 0.057 | [12] 0.066 | [13] -0.012 | [14] -0.065 | [16] 0.101 | [20] -0.017

NKTR (UniProt P30414)
inactive: [1] 0.025 | [2] -0.141 | [3] -0.076 | [4] -0.256 | [5] -0.023 | [6] -0.018 | [7] -0.255 | [17] -0.18 | [18] 0.091 | [8] 0.039 | [9] 0.085 | [19] -0.114 | [10] -0.143 | [11] 0.019 | [12] 0.057 | [13] 0.028 | [14] -0.203 | [16] 0.025 | [20] -0.072

NFKBIA (UniProt P25963)
inactive: [1] 0.166 | [2] 0.047 | [3] 0.023 | [4] 0.11 | [5] 0.108 | [7] -0.057 | [9] 0.187 | [19] -0.002 | [12] 0.237 | [13] 0.022 | [14] -0.09 | [15] -0.006 | [20] -0.062

NIPA1 (UniProt Q7RTP0)
inactive: [1] -0.02 | [2] -0.043 | [3] -0.138 | [4] -0.073 | [5] 0.026 | [6] 0.024 | [7] 0.072 | [8] -0.034 | [9] 0.04 | [19] 0.034 | [10] 0.033 | [11] -0.04 | [12] 0.018 | [13] 0.056 | [15] -0.04 | [16] 0.036 | [20] 0.016

NFYC (UniProt Q13952)
inactive: [1] -0.022 | [2] 0.056 | [3] -0.013 | [4] -0.093 | [5] 0.024 | [6] -0.01 | [7] 0.036 | [17] -0.003 | [18] 0.005 | [8] -0.05 | [9] -0.02 | [19] 0 | [10] 0.027 | [11] -0.029 | [12] 0 | [13] 0.02 | [14] 0.016 | [15] -0.005 | [16] 0.021 | [20] -0.019

NLRP1 (UniProt Q9C000)
inactive: [1] -0.048 | [3] -0.888 | [6] 0.665 | [17] 0.442 | [18] 0.055 | [8] 0.136 | [10] -0.133 | [11] 0.067 | [12] 0.205 | [14] 0.283 | [15] 0.295 | [16] -0.25

Copied from the entries so far (2 entries):
NKTR (UniProt P30414)
inactive: [1] 0.025 | [2] -0.141 | [3] -0.076 | [4] -0.256 | [5] -0.023 | [6] -0.018 | [7] -0.255 | [17] -0.18 | [18] 0.091 | [8] 0.039 | [9] 0.085 | [19] -0.114 | [10] -0.143 | [11] 0.019 | [12] 0.057 | [13] 0.028 | [14] -0.203 | [16] 0.025 | [20] -0.072

NFKBIA (UniProt P25963)
inactive: [1] 0.166 | [2] 0.047 | [3] 0.023 | [4] 0.11 | [5] 0.108 | [7] -0.057 | [9] 0.187 | [19] -0.002 | [12] 0.237 | [13] 0.022 | [14] -0.09 | [15] -0.006 | [20] -0.062

Continued.

NEURL4 (UniProt Q96JN8)
inactive: [1] -0.147 | [2] -0.018 | [3] -0.069 | [4] -0.174 | [7] -0.001 | [17] 0.035 | [18] -0.022 | [19] -0.096 | [12] -0.016 | [14] 0 | [15] 0.013 | [20] 0.048

NGDN (UniProt Q8NEJ9)
inactive: [1] -0.013 | [3] -0.108 | [6] -0.006 | [17] -0.342 | [18] 0.348 | [8] -0.067 | [19] -0.049 | [10] 0.053 | [11] 0.009 | [12] -0.091 | [13] -0.032 | [15] -0.012 | [16] 0.047 | [20] 0.063

NFE2L2 (UniProt Q16236)
inactive: [15] 0.068

NDUFC1 (UniProt O43677)
inactive: [1] -0.047 | [3] -0.089 | [6] -0.079 | [17] 0 | [18] 0.068 | [8] 0.006 | [10] 0.008 | [11] 0.1 | [12] -0.01 | [14] 0.002 | [16] -0.019

NKRF isoform 2 (UniProt O15226)
inactive: [1] -0.031 | [2] 0.047 | [3] -0.033 | [4] -0.064 | [6] 0.044 | [7] 0.075 | [17] -0.1 | [18] -0.003 | [8] 0.124 | [19] 0.057 | [10] 0.09 | [11] 0.008 | [12] -0.066 | [13] 0.048 | [14] -0.078 | [15] -0.076 | [16] -0.071 | [20] -0.029

NHLRC3 (UniProt Q5JS37)
inactive: [1] -0.007 | [2] -0.028 | [3] 0.062 | [4] -0.061 | [6] -0.051 | [7] -0.052 | [17] -0.026 | [18] 0.202 | [8] -0.025 | [19] 0.023 | [10] 0.106 | [11] 0 | [12] -0.047 | [13] -0.026 | [14] 0.035 | [15] -0.062 | [16] -0.003 | [20] -0.015
